# Measured values from ChEMBL document CHEMBL1141275, “Sesquiterpenoids from Bombax malabaricum” (J Nat Prod, 2007).
# System: MCF7
# Experiment: Cytotoxicity against human MCF7 cells by MTT assay
structure (smiles),measurement,value
CC(=O)O[C@H]1C(=O)[C@@]2(C)[C@H]([C@H](OC(=O)c3ccccc3)[C@]3(O)C[C@H](OC(=O)[C@H](O)[C@@H](NC(=O)c4ccccc4)c4ccccc4)C(C)=C1C3(C)C)[C@]1(OC(C)=O)CO[C@@H]1C[C@@H]2O [PACLITAXEL],IC50,12.4 nM
